We go through seven molecules from publication doi:10.1101/2020.07.04.184861.

Sequences of proteins named here, by UniProt entry; tags and fusion partners are left off.
UniProt Q6NZY4: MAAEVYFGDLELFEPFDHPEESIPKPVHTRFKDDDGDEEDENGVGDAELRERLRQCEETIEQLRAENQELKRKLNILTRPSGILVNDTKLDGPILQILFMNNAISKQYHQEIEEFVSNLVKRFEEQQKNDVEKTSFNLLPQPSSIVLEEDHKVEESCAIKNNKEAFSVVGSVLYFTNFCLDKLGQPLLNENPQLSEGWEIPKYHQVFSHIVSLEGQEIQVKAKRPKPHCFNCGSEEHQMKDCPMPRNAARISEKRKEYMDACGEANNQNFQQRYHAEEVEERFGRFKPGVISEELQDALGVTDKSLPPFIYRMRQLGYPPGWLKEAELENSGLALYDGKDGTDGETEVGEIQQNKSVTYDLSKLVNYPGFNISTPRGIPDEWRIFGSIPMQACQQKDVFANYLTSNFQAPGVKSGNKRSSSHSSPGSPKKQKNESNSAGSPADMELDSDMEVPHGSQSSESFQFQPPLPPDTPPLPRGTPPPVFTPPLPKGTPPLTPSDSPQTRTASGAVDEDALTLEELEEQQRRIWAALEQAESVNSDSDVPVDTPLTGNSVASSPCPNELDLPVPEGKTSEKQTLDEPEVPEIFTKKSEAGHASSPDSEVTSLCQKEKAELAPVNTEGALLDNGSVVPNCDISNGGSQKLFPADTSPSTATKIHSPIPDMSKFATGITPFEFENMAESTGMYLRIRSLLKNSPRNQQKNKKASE
UniProt Q9H814: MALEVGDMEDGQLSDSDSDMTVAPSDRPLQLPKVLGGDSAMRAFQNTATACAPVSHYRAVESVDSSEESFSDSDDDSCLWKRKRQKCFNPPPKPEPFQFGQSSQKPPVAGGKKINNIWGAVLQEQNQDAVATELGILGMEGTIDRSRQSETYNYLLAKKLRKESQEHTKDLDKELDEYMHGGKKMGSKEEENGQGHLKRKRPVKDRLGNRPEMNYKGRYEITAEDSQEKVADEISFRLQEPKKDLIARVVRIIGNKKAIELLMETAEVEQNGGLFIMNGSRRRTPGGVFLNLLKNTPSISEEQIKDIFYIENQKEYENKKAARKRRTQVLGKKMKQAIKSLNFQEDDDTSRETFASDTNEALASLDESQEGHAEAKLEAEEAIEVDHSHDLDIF

Results are given in words; binding and its absence hold for the method and conditions named. Binding seen in cells or lysates may run through a third protein. A yes stands for co-enrichment or nearness to the bait. Other partners may have been found. For some of these results: No binding means not detected with the bait. For some of these results: Where a sequence is shown, tags or fusion partners need not be part of it.

What all share (assay): affinity purification with mass spectrometry
For assay [1], the target named is LAP-tagged NCBP1 (Nuclear Cap Binding Protein 1) (UniProt Q09161).
Assay [2] concerns the target T1, LAP-tagged NCBP2 (Nuclear Cap Binding Protein 2) (UniProt P52298).
T1 sequence: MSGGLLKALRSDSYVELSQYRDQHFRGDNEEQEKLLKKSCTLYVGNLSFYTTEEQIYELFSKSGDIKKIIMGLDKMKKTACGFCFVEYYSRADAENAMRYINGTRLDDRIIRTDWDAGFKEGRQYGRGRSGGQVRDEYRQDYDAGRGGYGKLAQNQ

The target of assay [3] is T2, LAP-tagged NCBP3 (C17orf85) (UniProt Q53F19).
T2 sequence: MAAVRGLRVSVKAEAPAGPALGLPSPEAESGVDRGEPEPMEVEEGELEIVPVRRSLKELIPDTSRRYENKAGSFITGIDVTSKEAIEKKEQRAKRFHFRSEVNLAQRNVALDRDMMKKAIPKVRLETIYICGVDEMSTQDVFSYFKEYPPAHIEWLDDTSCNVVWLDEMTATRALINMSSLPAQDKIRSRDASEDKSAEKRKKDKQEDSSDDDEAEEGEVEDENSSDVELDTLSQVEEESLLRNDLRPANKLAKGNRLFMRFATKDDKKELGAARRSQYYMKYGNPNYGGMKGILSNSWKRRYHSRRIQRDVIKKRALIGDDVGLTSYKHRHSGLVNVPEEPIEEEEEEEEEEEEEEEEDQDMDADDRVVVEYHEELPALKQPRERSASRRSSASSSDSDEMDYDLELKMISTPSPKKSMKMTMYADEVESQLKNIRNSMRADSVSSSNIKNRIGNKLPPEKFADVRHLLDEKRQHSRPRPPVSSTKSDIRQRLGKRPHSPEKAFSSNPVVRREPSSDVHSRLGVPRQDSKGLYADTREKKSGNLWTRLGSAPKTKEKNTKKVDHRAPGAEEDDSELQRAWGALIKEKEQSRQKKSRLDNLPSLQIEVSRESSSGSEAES

The target of assay [4] is T3, LAP-tagged NCBP1 (Nuclear Cap Binding Protein 1), Q09161.
T3 chain: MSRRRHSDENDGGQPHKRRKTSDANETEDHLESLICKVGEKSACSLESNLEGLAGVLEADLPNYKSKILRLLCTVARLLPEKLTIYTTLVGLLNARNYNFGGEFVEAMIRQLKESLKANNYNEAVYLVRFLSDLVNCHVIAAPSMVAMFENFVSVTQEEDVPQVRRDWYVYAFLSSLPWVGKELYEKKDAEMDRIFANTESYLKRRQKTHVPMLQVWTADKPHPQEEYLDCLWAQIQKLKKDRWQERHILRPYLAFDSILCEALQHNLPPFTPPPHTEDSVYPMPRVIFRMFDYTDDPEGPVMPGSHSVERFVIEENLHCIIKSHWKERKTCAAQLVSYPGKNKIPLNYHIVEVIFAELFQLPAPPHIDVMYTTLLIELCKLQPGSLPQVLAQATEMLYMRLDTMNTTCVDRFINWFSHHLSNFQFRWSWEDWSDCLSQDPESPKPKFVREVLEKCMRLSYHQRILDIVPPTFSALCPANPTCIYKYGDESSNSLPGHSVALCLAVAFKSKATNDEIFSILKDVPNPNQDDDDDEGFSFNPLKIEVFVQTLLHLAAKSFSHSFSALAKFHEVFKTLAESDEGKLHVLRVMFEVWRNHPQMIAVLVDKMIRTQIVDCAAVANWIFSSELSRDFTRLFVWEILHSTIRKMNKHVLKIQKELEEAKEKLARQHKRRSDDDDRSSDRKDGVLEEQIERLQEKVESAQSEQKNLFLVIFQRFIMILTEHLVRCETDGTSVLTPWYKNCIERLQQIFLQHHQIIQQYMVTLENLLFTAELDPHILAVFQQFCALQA
Particulars: remark: other sources report otherwise.

The target of assay [5] is T4, LAP-tagged NCBP2 (Nuclear Cap Binding Protein 2), P52298.
T4 chain: T1 sequence
As to conditions: remark: other sources report otherwise.

For “ZCCHC8, endogenous (from UniProt Q6NZY4 1-707)”, the results for the binding entry in assay [1], in assay [2] and in assay [3] were “binds”, “binds” and “no binding”, respectively.
As for “Nuclear Cap Binding Protein 1 (NCBP1), endogenous (from UniProt Q09161 1-790)”, in assay [2], the binding entry was “binds”.
As for “PHAX, endogenous (from UniProt Q9H814 1-394)”, the binding result is reported as “binds” in assay [1], “binds” in assay [2] and “no binding” in assay [3].

B1: ZC3H18, endogenous, Q86VM9 1-953 (protein)
chain: MDVAESPERDPHSPEDEEQPQGLSDDDILRDSGSDQDLDGAGVRASDLEDEESAARGPSQEEEDNHSDEEDRASEPKSQDQDSEVNELSRGPTSSPCEEEGDEGEEDRTSDLRDEASSVTRELDEHELDYDEEVPEEPAPAVQEDEAEKAGAEDDEEKGEGTPREEGKAGVQSVGEKESLEAAKEKKKEDDDGEIDDGEIDDDDLEEGEVKDPSDRKVRPRPTCRFFMKGNCTWGMNCRFIHPGVNDKGNYSLITKADPFPPNGAPPLGPHPLMPANPWGGPVVDEILPPPPPEPPTESAWERGLRHAKEVLKKATIRKEQEPDFEEKRFTVTIGEDEREFDKENEVFRDWNSRIPRDVRDTVLEPYADPYYDYEIERFWRGGQYENFRVQYTETEPYHNYRERERERERENRQRERERERERDRERERRQRERERERERERDKERQRRKEEWERERAKRDEKDRQHRDRDREKEREKEKGKPKPRSPQPPSRQAEPPKKEAATTGPQVKRADEWKDPWRRSKSPKKKLGVSVSPSRARRRRKTSASSASASNSSRSSSRSSSYSGSGSSRSRSRSSSYSSYSSRSSRHSSFSGSRSRSRSFSSSPSPSPTPSPHRPSIRTKGEPAPPPGKAGEKSVKKPAPPPAPPQATKTTAPVPEPTKPGDPREARRKERPARTPPRRRTLSGSGSGSGSSYSGSSSRSRSLSVSSVSSVSSATSSSSSAHSVDSEDMYADLASPVSSASSRSPAPAQTRKEKGKSKKEDGVKEEKRKRDSSTQPPKSAKPPAGGKSSQQPSTPQQAPPGQPQQGTFVAHKEIKLTLLNKAADKGSRKRYEPSDKDRQSPPPAKRPNTSPDRGSRDRKSGGRLGSPKPERQRGQNSKAPAAPADRKRQLSPQSKSSSKVTSVPGKASDPGAASTKSGKASTLSRREELLKQLKAVEDAIARKRAKIPGKA
Regarding B1, the binding entry in assay [4] and in assay [5] was “binds” each time.

B2: ZC3H18, endogenous (protein, UniProt Q86VM9 1-953)
chain: B1 chain
Take B2: the binding entry in assay [3] is reported as “no binding”.

B3: ARS2, endogenous (protein, UniProt Q9BXP5 1-876)
chain: MGDSDDEYDRRRRDKFRRERSDYDRSRERDERRRGDDWNDREWDRGRERRSRGEYRDYDRNRRERFSPPRHELSPPQKRMRRDWDEHSSDPYHSGYEMPYAGGGGGPTYGPPQPWGHPDVHIMQHHVLPIQARLGSIAEIDLGVPPPVMKTFKEFLLSLDDSVDETEAVKRYNDYKLDFRRQQMQDFFLAHKDEEWFRSKYHPDEVGKRRQEARGALQNRLRVFLSLMETGWFDNLLLDIDKADAIVKMLDAAVIKMEGGTENDLRILEQEEEEEQAGKPGEPSKKEEGRAGAGLGDGERKTNDKDEKKEDGKQAENDSSNDDKTKKSEGDGDKEEKKEDSEKEAKKSSKKRNRKHSGDDSFDEGSVSESESESESGQAEEEKEEAEEALKEKEKPKEEEWEKPKDAAGLECKPRPLHKTCSLFMRNIAPNISRAEIISLCKRYPGFMRVALSEPQPERRFFRRGWVTFDRSVNIKEICWNLQNIRLRECELSPGVNRDLTRRVRNINGITQHKQIVRNDIKLAAKLIHTLDDRTQLWASEPGTPPLPTSLPSQNPILKNITDYLIEEVSAEEEELLGSSGGAPPEEPPKEGNPAEINVERDEKLIKVLDKLLLYLRIVHSLDYYNTCEYPNEDEMPNRCGIIHVRGPMPPNRISHGEVLEWQKTFEEKLTPLLSVRESLSEEEAQKMGRKDPEQEVEKFVTSNTQELGKDKWLCPLSGKKFKGPEFVRKHIFNKHAEKIEEVKKEVAFFNNFLTDAKRPALPEIKPAQPPGPAQILPPGLTPGLPYPHQTPQGLMPYGQPRPPILGYGAGAVRPAVPTGGPPYPHAPYGAGRGNYDAFRGQGGYPGKPRNRMVRGDPRAIVEYRDLDAPDDVDFF
Consider B3, for which the binding result in assay [1] and in assay [2] was “binds” throughout.

B4: RNPS1, endogenous (protein, UniProt Q15287 1-305)
chain: MDLSGVKKKSLLGVKENNKKSSTRAPSPTKRKDRSDEKSKDRSKDKGATKESSEKDRGRDKTRKRRSASSGSSSTRSRSSSTSSSGSSTSTGSSSGSSSSSASSRSGSSSTSRSSSSSSSSGSPSPSRRRHDNRRRSRSKSKPPKRDEKERKRRSPSPKPTKVHIGRLTRNVTKDHIMEIFSTYGKIKMIDMPVERMHPHLSKGYAYVEFENPDEAEKALKHMDGGQIDGQEITATAVLAPWPRPPPRRFSPPRRMLPPPPMWRRSPPRMRRRSRSPRRRSPVRRRSRSPGRRRHRSRSSSNSSR
As to B4, the binding result in assay [3] was “binds”.
